Some of the results follow. Further columns of the screen follow, without active or inactive calls. Most of these compounds were active or inconclusive in the main read-out, so they are no random draw. Potencies come from curve fits of mixed quality, noted in brackets.
Assay: qHTS Assay to Find Inhibitors of Chronic Active B-Cell Receptor Signaling
Details: ABC-DLBCL IkBa-CBG/CBR reporter, luminescence ratio (green luciferase fused to IkBa over red control in TMD8 lymphoma cells), 4 h
Summary of the method: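 TMD8 ABC-DLBCL cells carrying doxycycline-inducible green luciferase fused to IkappaBalpha plus unfused red luciferase were exposed to compounds (up to 46 uM) for 4 hrs at 37C. Activity came from the overlap-corrected green/red luminescence ratio.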

[1] = measured here: CBR red luminescence, cell number
[2] = measured here: IkBa-CBG green luminescence

Structure (SMILES) | AC50 [1] | AC50 [2]
Clc1ccc(-c2cc(-c3nnc4n3CCCCC4)c3ccccc3n2)cc1 | 14.6 µM [rising, partial curve, poor fit] | 
C#CCOc1c(Cl)cc(/C=N/NC(N)=S)cc1OCC | 10.3 µM [rising, partial curve, poor fit] | 
N#Cc1c(N)nc2c(c1N)CC(=O)N2c1ccccc1-c1ccccc1 |  | 14.1 µM [falling, partial curve, poor fit]
Cc1ccccc1OCC(=O)N/N=C/c1cc2ccccc2nc1Cl | 0.891 µM [rising, full curve, poor fit] | 
Nc1ccc(C(=O)N/N=C/c2ccc(N3CCOCC3)s2)cc1 | 16.4 µM [falling, partial curve] | 
O=C(NCCc1c[nH]c2ccccc12)C(=O)c1c[nH]c2ccccc12 | 6.31 µM [falling, partial curve] | 
O=C(c1cccc2ccccc12)C1CCCN(C(=O)C2CCOCC2)C1 (configuration not stated) | 14.1 µM [rising, partial curve, poor fit] | 
Cc1nnc(N/N=C/c2c[nH]c3ccccc23)[nH]c1=O | 35.5 µM [falling, partial curve, poor fit] | 
CCCCCC(=O)NNC(=S)NC(=O)c1cccc([N+](=O)[O-])c1 | 29.1 µM [rising, single point] | 
COc1ccccc1C(=O)Nc1ccccc1N1CCN(S(C)(=O)=O)CC1 | 18.4 µM [falling, partial curve] | 
O=C(NCc1ccc(F)cc1)c1cccc2c1C(=O)N(Cc1cccnc1)C2 | 15.8 µM [falling, single point] | 
FC(F)(F)c1ccc(Sc2n[nH]c(C(F)(F)F)n2)nc1 | 15.8 µM [rising, single point] | 
Cn1ccnc1SCc1cc(=O)[nH]c2ccccc12 | 3.66 µM [rising, partial curve] | 
O=C(Nc1ccc2c(c1)OCO2)c1noc2c1CCCCC2 | 10 µM [falling, partial curve] | 
CSc1ccccc1NC(=O)c1cccs1 | 35.5 µM [rising, single point] | 
O=C(CSc1ccc2ccccc2n1)c1ccccc1 | 12.6 µM [falling, single point] | 
O=C(CN1C(=O)NC(Cc2ccccc2)C1=O)Nc1ccccc1 (configuration not stated) | 29.1 µM [falling, single point] | 
CCOc1ccc(Br)cc1C(=O)N/N=C/c1ccccn1 | 35.5 µM [falling, single point] | 
O=S(=O)(NCC1CN(S(=O)(=O)c2ccc3c(c2)OCCO3)C1)c1c(F)cccc1F | 7.31 µM [rising, partial curve, poor fit] | 
COc1cc(/C=C2\C(=O)N(C)C(=S)N2C)ccc1O | 1.16 µM [falling, single point] | 
O=C(CSc1ccccc1)NCCc1ccccc1 | 12.6 µM [falling, single point] | 
Cc1ccc2oc(C(=O)N3CCCCCC3)c(C)c2c1 | 8.91 µM [rising, partial curve, poor fit] | 

Structure (SMILES) | AC50 [1] | AC50 [2]
O=C(C1Cc2ccccc2CN1C(=O)c1ccco1)N1CCN(c2ccccc2)CC1 (configuration not stated) | 20.6 µM [falling, single point] | 
Cc1csc(NC(=O)CCc2ccc(S(=O)(=O)N3CCOCC3)cc2)n1 | 23.1 µM [falling, single point] | 
CN(Cc1ccccc1)c1ccc(C(CC(N)=O)NC(=O)c2ccc(Br)cc2)cc1[N+](=O)[O-] (configuration not stated) | 28.2 µM [falling, single point] | 
Cc1ccc(C(CNS(=O)(=O)c2ccc(F)cc2C)N2CCN(C)CC2)cc1 (configuration not stated) | 29.1 µM [falling, single point] | 
COCCn1c(C)cc(/C=C2/NC(=O)N(c3ccc(Cl)cc3)C2=O)c1C | 32.6 µM [falling, partial curve, poor fit] | 
COc1ccccc1OCCC(=O)OCC(=O)NC(=O)NC(C)(C)C | 14.1 µM [falling, partial curve, poor fit] | 
Cc1ccc(CNC(=O)CSc2c3c(nc4cc(Cl)ccc24)CCCC3)o1 | 29.1 µM [falling, single point] | 
Cc1cc(NC(=O)c2ccc(-c3ccc(F)c(Cl)c3)o2)no1 | 2 µM [rising, partial curve, poor fit] | 
COc1cc(C(=O)NNC(=S)Nc2ccc(S(N)(=O)=O)cc2)cc(OC)c1OC | 31.6 µM [rising, single point] | 15.8 µM [falling, partial curve]
Cc1ccc(/C=N/Nc2ncnc3nc[nH]c23)cc1 | 12.6 µM [falling, partial curve, poor fit] | 
CCc1ccc2[nH]c3nc(SCc4nnc(-c5ccc(C)cc5)o4)nnc3c2c1 | 2.59 µM [rising, full curve] | 
Fc1ccc(Nc2ncnc3sc4c(c23)CCC4)cc1F | 13 µM [rising, partial curve] | 
COc1ccccc1C(=O)NCCc1nc2ccccc2n1C | 10 µM [falling, partial curve, poor fit] | 
O=C(O)COc1ccc(/C=N/NC(=O)c2ccccc2Br)cc1 | 3.98 µM [falling, partial curve] | 
Cc1cccc(C(=O)N/N=C/C(C)Cc2ccc3c(c2)OCO3)c1 (configuration not stated) | 16.4 µM [falling, partial curve, poor fit] | 
Cc1ccc(NC(=O)CSc2nnc(CNC(=O)c3ccco3)n2C)cc1C | 2.06 µM [rising, full curve, poor fit] | 
Nc1n[nH]c(N)c1N=Nc1ccc(Cl)cc1Cl | 6.51 µM [rising, full curve, poor fit] | 
O=C(Nc1ccccc1Cl)/C(Cl)=C(\Cl)S(=O)c1ccccc1 (configuration not stated) | 1.26 µM [falling, full curve, poor fit] | 3.55 µM [rising, full curve, poor fit]
Cc1ccc(-n2ncc3c(=O)n(CC(=O)N4CCN(c5ccccc5)CC4)cnc32)cc1 | 3.16 µM [rising, partial curve] | 
Cc1cc(CNC(=O)c2cc(COc3c(F)cccc3F)on2)nn1C | 0.794 µM [rising, full curve, poor fit] | 
CC(C)(C)c1ccc(-c2noc(CCC(=O)Nc3cccnc3)n2)cc1 | 7.08 µM [falling, full curve, poor fit] | 
Clc1cccc(-c2cc3nc4c(c(N5CCOCC5)n3n2)CCCC4)c1 | 0.164 µM [rising, full curve, poor fit] | 

Structure (SMILES) | AC50 [1] | AC50 [2]
CCOC(=O)C1=C(C)N(c2ccc(OC)cc2)C(=O)/C1=C\c1cccs1 | 1.64 µM [rising, full curve, poor fit] | 
CC12CCC(C(=O)Nc3cccnc3)(CC1=O)C2(C)C (configuration not stated) | 5.8 µM [rising, full curve, poor fit] | 
O=C(CCl)Nc1cccc(CP(=O)(c2ccccc2)c2ccccc2)c1 | 5.62 µM [falling, full curve, poor fit] | 
CS(=O)c1ccccc1-c1nc(-c2ccc(Cl)cc2)no1 (configuration not stated) | 12.6 µM [rising, partial curve, poor fit] | 
COC(=O)c1ccc(CSc2nc3scc(-c4cccs4)c3c(=O)[nH]2)o1 | 35.5 µM [falling, single point] | 
COc1ccc(-c2nc(SC(CC(=O)NCc3ccccc3)c3ccc(OC)c(OC)c3)n[nH]2)cc1 (configuration not stated) | 20.6 µM [rising, single point] | 
CC(C)OC(=O)Cn1nc(C(F)(F)F)c2c1CCCC2 | 35.5 µM [rising, partial curve, poor fit] | 
CC(C)c1nnc(NC(=O)CCC(=O)Nc2ccc(F)cc2)s1 | 15.8 µM [falling, partial curve, poor fit] | 
O=C(NCc1cc([N+](=O)[O-])ccc1O)c1cccnc1Sc1ccccc1 | 8.91 µM [falling, partial curve] | 
Cc1nc2ccc(NC(=O)NC(=O)c3c(Cl)cccc3Cl)cc2o1 | 3.55 µM [rising, single point] | 
CC(C)CCNC(=O)c1ccc2c(Cl)c3c(nc2c1)CCC3 | 17.8 µM [falling, single point] | 
OCCNCCCCOc1ccc(OCc2ccccc2)cc1 | 6.51 µM [rising, single point] | 
CC(=O)Nc1cccc(/C(C)=N/NC(=O)c2ccc3c(c2)OCO3)c1 | 11.2 µM [falling, partial curve] | 
CC(=O)Cc1nsc(NC(=O)c2ccc(-c3ccccc3Cl)o2)n1 | 10.3 µM [falling, partial curve] | 
O=c1c2sc(-c3ccccc3)cc2nc2n1CCCCC2 | 3.16 µM [falling, partial curve, poor fit] | 
COc1ccc(OC2C(=O)N(Cc3ccc4c(c3)OCO4)C2c2cccs2)cc1 (configuration not stated) | 35.5 µM [falling, single point] | 
O=C(CCn1cccc1)N1CCc2ccccc21 | 0.461 µM [falling, full curve, poor fit] | 
Cn1sc(NC(=O)c2cccc(Cl)c2)nc1=O | 11.2 µM [falling, partial curve, poor fit] | 
CCOC(=O)c1ccc(NC(=O)N2CC(C)OC(C)C2)cc1 (configuration not stated) | 6.31 µM [falling, single point] | 
O=C(Nc1cccnc1)c1cc(S(=O)(=O)N2CCCCC2)c(Cl)cc1Cl | 35.5 µM [falling, single point] | 
COc1ccc(C(=O)O/N=C(\N)c2ccccn2)cc1 | 0.398 µM [falling, full curve] | 

A different layout for part of the listing above.

| Structure (SMILES) | AC50 [1] | AC50 [2] |
| --- | --- | --- |
| Nc1ccc(C(=O)N/N=C/c2ccc(N3CCOCC3)s2)cc1 | 16.4 µM [falling, partial curve] |  |
| Cc1nnc(N/N=C/c2c[nH]c3ccccc23)[nH]c1=O | 35.5 µM [falling, partial curve, poor fit] |  |
| CCCCCC(=O)NNC(=S)NC(=O)c1cccc([N+](=O)[O-])c1 | 29.1 µM [rising, single point] |  |
| O=C(NCc1ccc(F)cc1)c1cccc2c1C(=O)N(Cc1cccnc1)C2 | 15.8 µM [falling, single point] |  |
| O=C(Nc1ccc2c(c1)OCO2)c1noc2c1CCCCC2 | 10 µM [falling, partial curve] |  |
| O=C(CSc1ccc2ccccc2n1)c1ccccc1 | 12.6 µM [falling, single point] |  |
| COc1cc(/C=C2\C(=O)N(C)C(=S)N2C)ccc1O | 1.16 µM [falling, single point] |  |
| Cc1ccc(C(CNS(=O)(=O)c2ccc(F)cc2C)N2CCN(C)CC2)cc1 (configuration not stated) | 29.1 µM [falling, single point] |  |
| COc1cc(C(=O)NNC(=S)Nc2ccc(S(N)(=O)=O)cc2)cc(OC)c1OC | 31.6 µM [rising, single point] | 15.8 µM [falling, partial curve] |
| Cc1ccc(/C=N/Nc2ncnc3nc[nH]c23)cc1 | 12.6 µM [falling, partial curve, poor fit] |  |
| COc1ccccc1C(=O)NCCc1nc2ccccc2n1C | 10 µM [falling, partial curve, poor fit] |  |
| CC(C)(C)c1ccc(-c2noc(CCC(=O)Nc3cccnc3)n2)cc1 | 7.08 µM [falling, full curve, poor fit] |  |
| CCOC(=O)C1=C(C)N(c2ccc(OC)cc2)C(=O)/C1=C\c1cccs1 | 1.64 µM [rising, full curve, poor fit] |  |
| CC(C)OC(=O)Cn1nc(C(F)(F)F)c2c1CCCC2 | 35.5 µM [rising, partial curve, poor fit] |  |
| O=C(NCc1cc([N+](=O)[O-])ccc1O)c1cccnc1Sc1ccccc1 | 8.91 µM [falling, partial curve] |  |
| OCCNCCCCOc1ccc(OCc2ccccc2)cc1 | 6.51 µM [rising, single point] |  |
| CC(=O)Nc1cccc(/C(C)=N/NC(=O)c2ccc3c(c2)OCO3)c1 | 11.2 µM [falling, partial curve] |  |
| COc1ccc(OC2C(=O)N(Cc3ccc4c(c3)OCO4)C2c2cccs2)cc1 (configuration not stated) | 35.5 µM [falling, single point] |  |

From PubChem BioAssay AID493014 (National Center for Advancing Translational Sciences (NCATS), 2011)
